Measured values published in publication PMC12267381.
These are yes or no findings as the source states them, for the method shown. In cells and extracts the contact can be indirect. Some entries that bind do so weakly or less than the wild type.

T1: Sterol regulatory element binding protein 1 (mouse (endogenous in bEND.3)) (UniProt Q9WTN3)
T1 sequence: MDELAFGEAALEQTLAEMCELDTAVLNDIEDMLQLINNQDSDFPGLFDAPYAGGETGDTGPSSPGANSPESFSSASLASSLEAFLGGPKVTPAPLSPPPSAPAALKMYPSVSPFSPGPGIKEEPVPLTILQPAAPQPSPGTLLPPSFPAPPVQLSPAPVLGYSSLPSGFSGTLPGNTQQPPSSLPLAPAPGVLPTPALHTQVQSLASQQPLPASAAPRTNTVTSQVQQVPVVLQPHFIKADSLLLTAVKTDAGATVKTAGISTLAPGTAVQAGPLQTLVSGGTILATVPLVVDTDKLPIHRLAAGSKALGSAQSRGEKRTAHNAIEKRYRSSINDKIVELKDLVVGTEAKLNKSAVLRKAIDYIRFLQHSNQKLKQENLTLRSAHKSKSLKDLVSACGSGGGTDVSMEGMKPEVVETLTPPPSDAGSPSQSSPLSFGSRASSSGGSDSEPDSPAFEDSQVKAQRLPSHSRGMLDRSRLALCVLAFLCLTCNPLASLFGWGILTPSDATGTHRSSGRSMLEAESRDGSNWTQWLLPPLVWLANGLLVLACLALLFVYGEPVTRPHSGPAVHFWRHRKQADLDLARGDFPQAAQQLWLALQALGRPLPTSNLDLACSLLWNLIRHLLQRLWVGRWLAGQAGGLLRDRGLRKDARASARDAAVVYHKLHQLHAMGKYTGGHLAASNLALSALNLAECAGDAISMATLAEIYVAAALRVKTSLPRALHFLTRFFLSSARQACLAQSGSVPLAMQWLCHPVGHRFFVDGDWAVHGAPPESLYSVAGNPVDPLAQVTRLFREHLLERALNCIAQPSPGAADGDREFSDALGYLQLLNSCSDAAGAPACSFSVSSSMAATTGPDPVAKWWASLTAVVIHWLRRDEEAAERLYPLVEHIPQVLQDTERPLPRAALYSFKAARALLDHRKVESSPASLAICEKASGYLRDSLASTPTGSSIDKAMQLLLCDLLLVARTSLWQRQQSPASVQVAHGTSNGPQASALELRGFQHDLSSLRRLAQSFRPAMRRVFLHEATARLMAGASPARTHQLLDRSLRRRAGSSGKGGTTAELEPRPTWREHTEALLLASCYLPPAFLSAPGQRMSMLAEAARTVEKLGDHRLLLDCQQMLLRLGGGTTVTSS


The binders below were run against T1, Sterol regulatory element binding protein 1 (mouse (endogenous in bEND.3)) (assay: co-IP; anti-SREBP1 antibody (Santa Cruz sc-365513) and protein A/G magnetic beads added to lysate of bEND.3 endothelial cells, room temperature 2 h; immunoblot of the precipitate; cells treated for 24 h with Erastin or Erastin + SDF-1α, with or without MTDH siRNA).

Binder	binding
INSIG2 (protein, UniProt Q91WG1 1-225) MAEGETESPRPKKCGPYISSVTSQSVNVVIRGVVLFFIGVFLALVLNLLQIQRNVTLFPPDVITSIFSSAWWVPPCCGTASAVIGLLYPCIDRHLGEPHKFKREWSSVMRCVAVFVGINHASAKVDFDNNFQFSLTLAALSVGLWWTFDRSRSGFGLGVGIAFLATVVTQLLVYNGVYQYTSPDFLYVRSWLPCIFFAGGITMGNIGRQLAMYECKVIAEKSHQE	binds
metadherin (protein, UniProt Q80WJ7 1-579) MAARSWQDELAQQAEEGSARLRELLSVGLGFLRTELGLDLGLEPKRYPGWVILVGTGALGLLLLFLLGYGWAAACAGARKKRRSPPRKREEAAPPTPAPDDLAQLKNLRSEEQKKKNRKKLPEKPKPNGRTVEVPEDEVVRNPRSITAKQAPETDKKNEKSKKNKKKSKSDAKAVQNSSRHDGKEVDEGAWETKISHREKRQQRKRDKVLTDSGSLDSTIPGIENIITVTTEQLTTASFPVGSKKNKGDSHLNVQVSNFKSGKGDSTLQVSSRLNENLTVNGGGWSEKSVKLSSQLSEEKWNSVPPASAGKRKTEPSAWTQDTGDTNANGKDWGRNWSDRSIFSGIGSTAEPVSQSTTSDYQWDVSRNQPYIDDEWSGLNGLSSADPSSDWNAPAEEWGNWVDEDRASLLKSQEPISNDQKVSDDDKEKGEGALPTGKSKKKKKKKKKQGEDNSHTQDTEDLEKDTREELPVNTSKARPKQEKACSLKTMSTSDPAEVLIKNSQPVKTLPPAISAEPSITLSKGDSDNSSSQVPPMLQDTDKPKSNAKQNSVPPSQTKSETNWESPKQIKKKKKARRET	binds
INSIG1 (protein, UniProt Q8BGI3 1-259) MPRLHDHVWNYPSAGAARPYSLPRGMIAAAACPQGPGVPEPEHAPRGQRAGTTGCSARPGSWHHDLVQRSLVLFSFGVVLALVLNLLQIQRNVTLFPDEVIATIFSSAWWVPPCCGTAAAVVGLLYPCIDSHLGEPHKFKREWASVMRCIAVFVGINHASAKLDFANNVQLSLTLAALSLGLWWTFDRSRSGLGLGITIAFLATLITQFLVYNGVYQYTSPDFLYIRSWLPCIFFSGGVTVGNIGRQLAMGVPEKPHSD	binds
